Results on 40 targets are retold here after the supplement of paper PMC6411743.

Sequences of proteins named here, by UniProt entry; tags and fusion partners are left off. A change or cut given only in a name is not applied to a line headed by its entry.
UniProt Q8IWJ2: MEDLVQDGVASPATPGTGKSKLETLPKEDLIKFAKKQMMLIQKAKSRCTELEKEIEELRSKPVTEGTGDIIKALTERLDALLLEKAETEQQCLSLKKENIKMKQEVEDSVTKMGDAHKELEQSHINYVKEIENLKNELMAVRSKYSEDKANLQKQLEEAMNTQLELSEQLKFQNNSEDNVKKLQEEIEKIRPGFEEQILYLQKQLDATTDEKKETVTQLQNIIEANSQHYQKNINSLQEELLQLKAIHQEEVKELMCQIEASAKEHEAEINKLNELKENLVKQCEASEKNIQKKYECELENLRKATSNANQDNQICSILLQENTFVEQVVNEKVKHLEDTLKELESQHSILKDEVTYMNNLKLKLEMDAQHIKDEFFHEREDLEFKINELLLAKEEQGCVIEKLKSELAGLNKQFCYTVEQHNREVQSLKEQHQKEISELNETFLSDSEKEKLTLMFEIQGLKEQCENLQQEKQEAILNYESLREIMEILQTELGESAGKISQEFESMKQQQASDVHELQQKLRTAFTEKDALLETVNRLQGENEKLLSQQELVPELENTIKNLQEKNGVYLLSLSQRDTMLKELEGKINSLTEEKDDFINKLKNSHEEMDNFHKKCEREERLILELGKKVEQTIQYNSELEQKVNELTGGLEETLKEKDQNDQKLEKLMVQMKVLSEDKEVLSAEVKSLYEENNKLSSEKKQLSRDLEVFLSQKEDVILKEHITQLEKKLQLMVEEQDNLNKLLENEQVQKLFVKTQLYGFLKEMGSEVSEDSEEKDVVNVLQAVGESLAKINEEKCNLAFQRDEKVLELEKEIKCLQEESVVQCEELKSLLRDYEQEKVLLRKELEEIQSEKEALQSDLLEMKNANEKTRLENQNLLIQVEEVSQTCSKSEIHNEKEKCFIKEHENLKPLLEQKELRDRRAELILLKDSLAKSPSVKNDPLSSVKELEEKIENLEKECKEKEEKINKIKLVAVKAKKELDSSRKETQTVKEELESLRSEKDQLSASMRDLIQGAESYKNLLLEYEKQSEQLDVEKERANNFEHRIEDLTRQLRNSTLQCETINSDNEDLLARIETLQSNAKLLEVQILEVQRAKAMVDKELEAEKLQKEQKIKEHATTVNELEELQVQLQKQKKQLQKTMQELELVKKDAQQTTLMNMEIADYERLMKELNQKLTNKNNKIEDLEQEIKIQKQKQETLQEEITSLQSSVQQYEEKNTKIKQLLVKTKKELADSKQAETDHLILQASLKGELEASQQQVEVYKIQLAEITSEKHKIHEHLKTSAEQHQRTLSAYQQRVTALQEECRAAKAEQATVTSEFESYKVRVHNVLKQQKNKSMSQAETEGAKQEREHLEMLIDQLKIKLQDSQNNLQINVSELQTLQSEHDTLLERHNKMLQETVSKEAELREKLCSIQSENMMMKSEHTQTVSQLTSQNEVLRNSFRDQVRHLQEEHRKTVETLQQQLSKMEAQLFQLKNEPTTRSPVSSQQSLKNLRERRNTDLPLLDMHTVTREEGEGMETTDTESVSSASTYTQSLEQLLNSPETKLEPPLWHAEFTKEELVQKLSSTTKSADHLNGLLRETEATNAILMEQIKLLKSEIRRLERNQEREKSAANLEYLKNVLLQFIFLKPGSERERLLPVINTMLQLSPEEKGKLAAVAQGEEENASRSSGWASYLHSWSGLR
UniProt Q86X76: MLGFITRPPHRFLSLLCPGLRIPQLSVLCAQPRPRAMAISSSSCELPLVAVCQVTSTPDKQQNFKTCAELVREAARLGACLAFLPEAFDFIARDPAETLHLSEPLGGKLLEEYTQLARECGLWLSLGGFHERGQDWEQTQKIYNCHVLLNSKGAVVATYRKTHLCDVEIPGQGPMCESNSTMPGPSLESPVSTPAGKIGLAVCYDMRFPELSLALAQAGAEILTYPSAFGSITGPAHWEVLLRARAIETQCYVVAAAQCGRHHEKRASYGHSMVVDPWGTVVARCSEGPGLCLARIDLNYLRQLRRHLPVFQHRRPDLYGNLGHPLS
UniProt Q86V48: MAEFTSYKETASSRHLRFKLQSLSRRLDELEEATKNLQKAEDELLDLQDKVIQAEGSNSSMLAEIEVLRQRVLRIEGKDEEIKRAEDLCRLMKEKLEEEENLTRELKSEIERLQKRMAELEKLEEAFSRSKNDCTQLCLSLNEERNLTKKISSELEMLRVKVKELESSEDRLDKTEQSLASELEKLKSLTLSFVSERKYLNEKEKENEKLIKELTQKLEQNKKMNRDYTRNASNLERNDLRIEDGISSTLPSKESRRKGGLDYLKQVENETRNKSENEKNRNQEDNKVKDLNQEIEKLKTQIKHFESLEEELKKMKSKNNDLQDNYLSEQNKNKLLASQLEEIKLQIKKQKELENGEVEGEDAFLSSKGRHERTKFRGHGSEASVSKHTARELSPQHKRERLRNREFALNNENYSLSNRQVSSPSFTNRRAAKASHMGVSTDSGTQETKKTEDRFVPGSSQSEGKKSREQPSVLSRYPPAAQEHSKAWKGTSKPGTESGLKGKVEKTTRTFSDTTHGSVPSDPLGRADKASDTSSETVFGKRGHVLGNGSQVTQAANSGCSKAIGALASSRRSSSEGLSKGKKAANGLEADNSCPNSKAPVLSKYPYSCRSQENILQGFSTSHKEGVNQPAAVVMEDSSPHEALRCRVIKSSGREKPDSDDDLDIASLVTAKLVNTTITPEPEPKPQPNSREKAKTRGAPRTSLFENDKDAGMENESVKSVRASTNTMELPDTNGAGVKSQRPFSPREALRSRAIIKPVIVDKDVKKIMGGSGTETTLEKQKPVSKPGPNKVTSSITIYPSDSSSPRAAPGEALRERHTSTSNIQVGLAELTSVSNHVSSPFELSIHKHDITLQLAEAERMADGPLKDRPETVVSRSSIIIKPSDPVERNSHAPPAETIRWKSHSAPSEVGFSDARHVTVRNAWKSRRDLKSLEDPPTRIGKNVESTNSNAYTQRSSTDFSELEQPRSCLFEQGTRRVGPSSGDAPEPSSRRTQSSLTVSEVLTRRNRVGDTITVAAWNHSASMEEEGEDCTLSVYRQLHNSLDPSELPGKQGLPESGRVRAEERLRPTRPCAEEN
UniProt Q86U70: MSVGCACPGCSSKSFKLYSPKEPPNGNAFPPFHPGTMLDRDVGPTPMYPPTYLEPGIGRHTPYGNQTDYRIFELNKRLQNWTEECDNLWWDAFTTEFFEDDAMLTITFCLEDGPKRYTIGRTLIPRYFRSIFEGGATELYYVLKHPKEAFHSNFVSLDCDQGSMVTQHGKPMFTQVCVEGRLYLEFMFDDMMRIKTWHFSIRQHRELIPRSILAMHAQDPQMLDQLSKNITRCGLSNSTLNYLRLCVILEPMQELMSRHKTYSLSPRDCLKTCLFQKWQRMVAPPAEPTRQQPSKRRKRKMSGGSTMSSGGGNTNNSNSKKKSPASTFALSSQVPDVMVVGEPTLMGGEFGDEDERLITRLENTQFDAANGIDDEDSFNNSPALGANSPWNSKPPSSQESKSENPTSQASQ
UniProt Q8N1G2: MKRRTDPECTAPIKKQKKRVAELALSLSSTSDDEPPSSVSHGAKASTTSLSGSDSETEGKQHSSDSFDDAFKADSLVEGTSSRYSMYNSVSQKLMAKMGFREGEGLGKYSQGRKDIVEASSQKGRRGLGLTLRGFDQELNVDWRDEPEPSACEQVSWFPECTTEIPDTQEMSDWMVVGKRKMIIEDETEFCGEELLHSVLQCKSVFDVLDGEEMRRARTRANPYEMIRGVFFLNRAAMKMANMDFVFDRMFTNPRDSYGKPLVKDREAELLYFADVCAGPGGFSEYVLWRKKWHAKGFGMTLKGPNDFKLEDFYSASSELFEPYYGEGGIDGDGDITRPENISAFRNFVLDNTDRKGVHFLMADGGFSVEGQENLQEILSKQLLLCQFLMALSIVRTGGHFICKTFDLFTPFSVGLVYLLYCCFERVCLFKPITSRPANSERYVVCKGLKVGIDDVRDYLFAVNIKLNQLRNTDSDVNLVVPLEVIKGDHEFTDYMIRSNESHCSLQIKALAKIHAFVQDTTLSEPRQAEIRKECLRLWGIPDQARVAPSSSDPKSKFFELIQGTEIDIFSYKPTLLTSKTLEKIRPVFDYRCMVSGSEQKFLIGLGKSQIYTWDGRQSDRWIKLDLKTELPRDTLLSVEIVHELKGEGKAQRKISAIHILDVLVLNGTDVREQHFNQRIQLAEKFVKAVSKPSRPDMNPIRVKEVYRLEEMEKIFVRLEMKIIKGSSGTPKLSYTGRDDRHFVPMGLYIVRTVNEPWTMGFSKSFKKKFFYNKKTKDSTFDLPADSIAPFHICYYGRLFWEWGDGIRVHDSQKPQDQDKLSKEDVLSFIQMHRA
UniProt Q8IUH4: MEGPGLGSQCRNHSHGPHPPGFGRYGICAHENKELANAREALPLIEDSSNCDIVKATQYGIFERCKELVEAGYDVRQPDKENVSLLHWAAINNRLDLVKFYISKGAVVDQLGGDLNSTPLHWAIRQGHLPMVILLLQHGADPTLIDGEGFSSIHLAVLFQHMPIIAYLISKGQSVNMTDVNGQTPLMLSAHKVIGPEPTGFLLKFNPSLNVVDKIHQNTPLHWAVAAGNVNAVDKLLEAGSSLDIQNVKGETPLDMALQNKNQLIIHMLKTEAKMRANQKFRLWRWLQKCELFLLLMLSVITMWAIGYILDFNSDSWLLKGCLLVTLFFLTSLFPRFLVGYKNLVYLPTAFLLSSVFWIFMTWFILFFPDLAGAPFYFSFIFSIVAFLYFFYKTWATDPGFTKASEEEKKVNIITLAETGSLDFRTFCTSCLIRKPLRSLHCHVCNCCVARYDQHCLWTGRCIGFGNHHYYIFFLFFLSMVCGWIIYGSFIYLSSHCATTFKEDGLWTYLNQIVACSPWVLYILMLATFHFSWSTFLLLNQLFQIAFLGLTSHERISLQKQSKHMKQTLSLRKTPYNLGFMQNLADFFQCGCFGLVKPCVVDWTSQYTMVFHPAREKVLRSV
UniProt Q8IVB5: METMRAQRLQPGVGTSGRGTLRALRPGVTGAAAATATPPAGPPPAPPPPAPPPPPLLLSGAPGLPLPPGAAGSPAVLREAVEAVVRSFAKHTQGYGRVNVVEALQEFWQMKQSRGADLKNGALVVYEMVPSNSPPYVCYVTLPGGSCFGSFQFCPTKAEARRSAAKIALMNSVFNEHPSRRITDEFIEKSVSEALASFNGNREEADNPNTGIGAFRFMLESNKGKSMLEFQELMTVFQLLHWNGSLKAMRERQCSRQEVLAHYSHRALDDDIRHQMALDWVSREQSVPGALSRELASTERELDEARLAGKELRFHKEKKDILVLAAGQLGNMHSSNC
UniProt Q8NBF6: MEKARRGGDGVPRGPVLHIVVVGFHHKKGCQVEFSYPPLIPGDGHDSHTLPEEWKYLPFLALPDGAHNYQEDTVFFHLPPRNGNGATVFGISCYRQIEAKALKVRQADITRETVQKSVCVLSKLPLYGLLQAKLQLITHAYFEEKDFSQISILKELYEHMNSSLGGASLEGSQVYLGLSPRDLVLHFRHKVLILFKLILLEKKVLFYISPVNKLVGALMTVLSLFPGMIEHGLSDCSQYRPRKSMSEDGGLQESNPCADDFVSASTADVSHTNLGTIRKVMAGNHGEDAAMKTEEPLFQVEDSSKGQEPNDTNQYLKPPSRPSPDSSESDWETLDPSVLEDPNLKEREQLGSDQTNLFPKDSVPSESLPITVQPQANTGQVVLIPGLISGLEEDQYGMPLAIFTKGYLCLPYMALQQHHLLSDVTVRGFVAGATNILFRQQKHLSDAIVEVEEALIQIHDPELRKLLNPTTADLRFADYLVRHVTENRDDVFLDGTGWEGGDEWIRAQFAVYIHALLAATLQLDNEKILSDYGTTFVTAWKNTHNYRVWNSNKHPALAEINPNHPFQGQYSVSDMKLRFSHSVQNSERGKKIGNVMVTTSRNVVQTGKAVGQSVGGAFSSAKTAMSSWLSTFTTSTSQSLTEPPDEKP
UniProt Q8N1G4: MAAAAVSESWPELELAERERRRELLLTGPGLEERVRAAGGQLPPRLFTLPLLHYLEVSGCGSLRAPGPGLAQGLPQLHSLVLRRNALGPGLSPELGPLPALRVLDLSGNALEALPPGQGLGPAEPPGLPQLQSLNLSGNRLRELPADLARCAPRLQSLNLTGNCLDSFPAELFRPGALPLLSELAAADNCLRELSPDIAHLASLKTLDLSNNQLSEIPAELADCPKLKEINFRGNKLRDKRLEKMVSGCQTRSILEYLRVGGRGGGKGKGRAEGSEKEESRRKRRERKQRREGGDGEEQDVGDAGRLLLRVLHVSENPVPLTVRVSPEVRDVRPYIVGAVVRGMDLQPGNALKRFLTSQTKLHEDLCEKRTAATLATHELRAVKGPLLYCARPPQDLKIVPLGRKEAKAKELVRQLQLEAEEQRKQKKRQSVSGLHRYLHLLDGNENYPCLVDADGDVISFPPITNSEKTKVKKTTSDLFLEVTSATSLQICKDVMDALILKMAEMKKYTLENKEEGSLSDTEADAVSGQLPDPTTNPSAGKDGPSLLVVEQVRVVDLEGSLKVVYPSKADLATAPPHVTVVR

± gives the standard deviation of the averaged measurements. Only a part is listed here, and it is no random draw.

Compound in the first assay: Nc1ncnc2c1ncn2[C@@H]1O[C@H](COP(=O)(O)OP(=O)(O)NP(=O)(O)O)[C@@H](O)[C@H]1O [adenylyl imidodiphosphate]
Nature of the assay: NP40-soluble protein abundance relative to vehicle (solubility fold change) (ratio); higher = more soluble protein in presence of AMP-PNP. The settings on record: concentration: 2mM. The method in brief: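 Values are fold changes against the detergent-processed vehicle, based on vsn-normalised intensities. Jurkat crude lysate was treated at eight concentrations from 0.1 to 10 mM (10 min at room temperature, then 3 min at 37 °C), solubilised with 0.8% NP40 and benzonase, ultracentrifuged and analysed by TMT-labelled LC-MS/MS over three independent experiments.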
In the case of UniProt Q8N5C7 and related entries, the NP40-soluble protein abundance worked out at 0.994 ± 0.049.

Regarding GCC2 (UniProt Q8IWJ2), the NP40-soluble protein abundance is 1.08 ± 0.079.

With UniProt Q8NBJ4 and related entries, the NP40-soluble protein abundance is 1.01 ± 0.026.

As to UniProt Q86X76 and related entries, the NP40-soluble protein abundance was found to be 0.965 ± 0.032.

Take UniProt Q86YS7: the NP40-soluble protein abundance came out at 0.97 ± 0.016.

For the target UniProt Q86V48 and related entries, the NP40-soluble protein abundance was found to be 1.07 ± 0.041.

As for UniProt Q86U70 and related entries, the NP40-soluble protein abundance was 0.922 ± 0.022.

For the target UniProt Q8N1G2, the NP40-soluble protein abundance is 0.94 ± 0.054.

Turning to UniProt Q8IUH4 and related entries, the NP40-soluble protein abundance turned out to be 0.957 ± 0.055.

Regarding UniProt Q8N7H5 and related entries, the NP40-soluble protein abundance was 1.04 ± 0.031.

As for LIX1L (UniProt Q8IVB5), the NP40-soluble protein abundance is 1.01 ± 0.052.

With SRBD1 (UniProt Q8N5C6), the NP40-soluble protein abundance was determined as 0.998 ± 0.036.

On to UniProt Q8NBF6 and related entries, for which the NP40-soluble protein abundance stood at 0.998 ± 0.063.

Turning to LRRC47 (UniProt Q8N1G4), the NP40-soluble protein abundance came out at 1.01 ± 0.021.

Still in this assay, the particulars now being: concentration: 4mM.
As to UniProt Q8N8A2 and related entries, the NP40-soluble protein abundance was 0.991 ± 0.052.

Regarding UniProt Q8N4L2 and related entries, the NP40-soluble protein abundance turned out to be 0.965 ± 0.038.

For ZBTB2 (UniProt Q8N680), the NP40-soluble protein abundance worked out at 1.03 ± 0.061.

Take PRPF39 (UniProt Q86UA1): the NP40-soluble protein abundance is 1.03 ± 0.026.

As for UniProt Q86UE8-2|Q86UE8-3|J3QLK5, the NP40-soluble protein abundance amounted to 1.02 ± 0.017.

Consider UniProt Q8N4J0, for which the NP40-soluble protein abundance turned out to be 0.95 ± 0.018.

On to C5orf24 (UniProt Q7Z6I8), for which the NP40-soluble protein abundance was 1 ± 0.03.

Take UniProt Q86SK9 and related entries: the NP40-soluble protein abundance was 0.988 ± 0.055.

As for UniProt Q8N684 and related entries, the NP40-soluble protein abundance was determined as 1.07 ± 0.016.

With UniProt Q8IUD2 and related entries, the NP40-soluble protein abundance was determined as 1.01 ± 0.017.

UniProt Q8N1K5 and related entries: the NP40-soluble protein abundance amounted to 0.946 ± 0.016.

Consider HPS6 (UniProt Q86YV9), for which the NP40-soluble protein abundance was found to be 0.957 ± 0.051.

On to CCDC82 (UniProt Q8N4S0), for which the NP40-soluble protein abundance came to 1.04 ± 0.031.

With RCOR2 (UniProt Q8IZ40), the NP40-soluble protein abundance was 1 ± 0.071.

Turning to UniProt Q8IV53 and related entries, the NP40-soluble protein abundance is 0.994 ± 0.033.

As for DCUN1D3 (UniProt Q8IWE4), the NP40-soluble protein abundance amounted to 0.967 ± 0.031.

Take UniProt Q8N5U6 and related entries: the NP40-soluble protein abundance is 0.975 ± 0.032.

Take UniProt Q86X10 and related entries: the NP40-soluble protein abundance was 1 ± 0.024.

Regarding USP48 (UniProt Q86UV5), the NP40-soluble protein abundance is 0.984 ± 0.024.

For UniProt Q86TN4 and related entries, the NP40-soluble protein abundance was 1.11 ± 0.034.

For the target UniProt Q8IZM8, the NP40-soluble protein abundance came out at 1 ± 0.016.

As to UniProt Q8IYH5 and related entries, the NP40-soluble protein abundance is 0.968 ± 0.05.

Take PIAS4 (UniProt Q8N2W9): the NP40-soluble protein abundance came to 1.02 ± 0.018.

In the case of ZNF579 (UniProt Q8NAF0), the NP40-soluble protein abundance was determined as 1.01 ± 0.056.

In the case of UniProt Q7Z7A1 and related entries, the NP40-soluble protein abundance was 1 ± 0.015.

Consider UniProt Q8N4C8 and related entries, for which the NP40-soluble protein abundance worked out at 1.06 ± 0.0092.

For UniProt Q8N5C7 and related entries, the NP40-soluble protein abundance turned out to be 0.994 ± 0.033.

For the target GCC2 (UniProt Q8IWJ2), the NP40-soluble protein abundance was found to be 1.04 ± 0.027.

Turning to UniProt Q8NBJ4 and related entries, the NP40-soluble protein abundance came out at 0.98 ± 0.053.

As for UniProt Q86X76 and related entries, the NP40-soluble protein abundance was found to be 1.03 ± 0.061.

For UniProt Q86YS7, the NP40-soluble protein abundance stood at 0.982 ± 0.017.

As to UniProt Q86V48 and related entries, the NP40-soluble protein abundance came out at 1.09 ± 0.044.

As for UniProt Q86U70 and related entries, the NP40-soluble protein abundance was determined as 0.969 ± 0.036.

As to UniProt Q8N1G2, the NP40-soluble protein abundance worked out at 0.964 ± 0.019.

As to UniProt Q8IUH4 and related entries, the NP40-soluble protein abundance amounted to 1.02 ± 0.076.

Regarding UniProt Q8N7H5 and related entries, the NP40-soluble protein abundance was determined as 1.01 ± 0.012.

LIX1L (UniProt Q8IVB5): the NP40-soluble protein abundance was 0.993 ± 0.038.

On to SRBD1 (UniProt Q8N5C6), for which the NP40-soluble protein abundance stood at 1.03 ± 0.019.

As for UniProt Q8NBF6 and related entries, the NP40-soluble protein abundance was found to be 0.99 ± 0.041.

With LRRC47 (UniProt Q8N1G4), the NP40-soluble protein abundance was 1.03 ± 0.021.

Staying with this assay, now noted: concentration: 6mM.
Regarding UniProt Q8N8A2 and related entries, the NP40-soluble protein abundance was 0.92 ± 0.044.

Consider UniProt Q8N4L2 and related entries, for which the NP40-soluble protein abundance stood at 1.03 ± 0.023.

Regarding ZBTB2 (UniProt Q8N680), the NP40-soluble protein abundance was determined as 0.976 ± 0.054.

As to PRPF39 (UniProt Q86UA1), the NP40-soluble protein abundance came to 1 ± 0.054.

On to UniProt Q86UE8-2|Q86UE8-3|J3QLK5, for which the NP40-soluble protein abundance is 1.01 ± 0.015.

Consider UniProt Q8N4J0, for which the NP40-soluble protein abundance came out at 0.978 ± 0.07.

On to C5orf24 (UniProt Q7Z6I8), for which the NP40-soluble protein abundance was found to be 0.993 ± 0.013.

With UniProt Q86SK9 and related entries, the NP40-soluble protein abundance is 0.987 ± 0.03.

Consider UniProt Q8N684 and related entries, for which the NP40-soluble protein abundance turned out to be 1.11 ± 0.036.

Regarding UniProt Q8IUD2 and related entries, the NP40-soluble protein abundance was found to be 1 ± 0.033.

On to UniProt Q8N1K5 and related entries, for which the NP40-soluble protein abundance came to 0.899 ± 0.021.

Regarding HPS6 (UniProt Q86YV9), the NP40-soluble protein abundance was 0.958 ± 0.02.

For CCDC82 (UniProt Q8N4S0), the NP40-soluble protein abundance was found to be 1.05 ± 0.044.

Turning to RCOR2 (UniProt Q8IZ40), the NP40-soluble protein abundance turned out to be 1.01 ± 0.046.

As to UniProt Q8IV53 and related entries, the NP40-soluble protein abundance amounted to 0.9887 ± 0.0092.

Turning to DCUN1D3 (UniProt Q8IWE4), the NP40-soluble protein abundance is 0.97 ± 0.026.

In the case of UniProt Q8N5U6 and related entries, the NP40-soluble protein abundance was found to be 0.998 ± 0.031.

Take UniProt Q86X10 and related entries: the NP40-soluble protein abundance stood at 0.938 ± 0.016.

As for USP48 (UniProt Q86UV5), the NP40-soluble protein abundance was found to be 0.965 ± 0.029.

As to UniProt Q86TN4 and related entries, the NP40-soluble protein abundance amounted to 1.1 ± 0.052.

For the target UniProt Q8IZM8, the NP40-soluble protein abundance turned out to be 1.01 ± 0.025.

For the target UniProt Q8IYH5 and related entries, the NP40-soluble protein abundance was found to be 0.994 ± 0.023.

With PIAS4 (UniProt Q8N2W9), the NP40-soluble protein abundance turned out to be 1.02 ± 0.073.

As to ZNF579 (UniProt Q8NAF0), the NP40-soluble protein abundance is 1.06 ± 0.076.

UniProt Q7Z7A1 and related entries: the NP40-soluble protein abundance came to 0.981 ± 0.017.

For UniProt Q8N4C8 and related entries, the NP40-soluble protein abundance worked out at 1.05 ± 0.058.

For UniProt Q8N5C7 and related entries, the NP40-soluble protein abundance was determined as 0.978 ± 0.066.

As to GCC2 (UniProt Q8IWJ2), the NP40-soluble protein abundance was found to be 0.985 ± 0.02.

For UniProt Q8NBJ4 and related entries, the NP40-soluble protein abundance stood at 0.9858 ± 0.0046.

Consider UniProt Q86X76 and related entries, for which the NP40-soluble protein abundance worked out at 1.13 ± 0.12.

Take UniProt Q86YS7: the NP40-soluble protein abundance came out at 0.942 ± 0.012.

For UniProt Q86V48 and related entries, the NP40-soluble protein abundance turned out to be 1.08 ± 0.025.

Turning to UniProt Q86U70 and related entries, the NP40-soluble protein abundance amounted to 0.967 ± 0.027.

As to UniProt Q8N1G2, the NP40-soluble protein abundance came out at 0.9538 ± 0.0066.

Regarding UniProt Q8IUH4 and related entries, the NP40-soluble protein abundance came out at 0.955 ± 0.039.

With UniProt Q8N7H5 and related entries, the NP40-soluble protein abundance was found to be 1.01 ± 0.037.

Turning to LIX1L (UniProt Q8IVB5), the NP40-soluble protein abundance turned out to be 0.99 ± 0.064.

On to SRBD1 (UniProt Q8N5C6), for which the NP40-soluble protein abundance is 1.08 ± 0.015.

Turning to UniProt Q8NBF6 and related entries, the NP40-soluble protein abundance was determined as 0.964 ± 0.045.

For LRRC47 (UniProt Q8N1G4), the NP40-soluble protein abundance is 1.06 ± 0.03.
